According to PMC7048761:
Results are given in words; binding and its absence hold for the method and conditions named. In cells and extracts the contact can be indirect. Some binding calls cover weakened binding; strength is not graded here.

Target: T1, SREBP cleavage-activating protein (SCAP) (UniProt Q12770)
T1 sequence: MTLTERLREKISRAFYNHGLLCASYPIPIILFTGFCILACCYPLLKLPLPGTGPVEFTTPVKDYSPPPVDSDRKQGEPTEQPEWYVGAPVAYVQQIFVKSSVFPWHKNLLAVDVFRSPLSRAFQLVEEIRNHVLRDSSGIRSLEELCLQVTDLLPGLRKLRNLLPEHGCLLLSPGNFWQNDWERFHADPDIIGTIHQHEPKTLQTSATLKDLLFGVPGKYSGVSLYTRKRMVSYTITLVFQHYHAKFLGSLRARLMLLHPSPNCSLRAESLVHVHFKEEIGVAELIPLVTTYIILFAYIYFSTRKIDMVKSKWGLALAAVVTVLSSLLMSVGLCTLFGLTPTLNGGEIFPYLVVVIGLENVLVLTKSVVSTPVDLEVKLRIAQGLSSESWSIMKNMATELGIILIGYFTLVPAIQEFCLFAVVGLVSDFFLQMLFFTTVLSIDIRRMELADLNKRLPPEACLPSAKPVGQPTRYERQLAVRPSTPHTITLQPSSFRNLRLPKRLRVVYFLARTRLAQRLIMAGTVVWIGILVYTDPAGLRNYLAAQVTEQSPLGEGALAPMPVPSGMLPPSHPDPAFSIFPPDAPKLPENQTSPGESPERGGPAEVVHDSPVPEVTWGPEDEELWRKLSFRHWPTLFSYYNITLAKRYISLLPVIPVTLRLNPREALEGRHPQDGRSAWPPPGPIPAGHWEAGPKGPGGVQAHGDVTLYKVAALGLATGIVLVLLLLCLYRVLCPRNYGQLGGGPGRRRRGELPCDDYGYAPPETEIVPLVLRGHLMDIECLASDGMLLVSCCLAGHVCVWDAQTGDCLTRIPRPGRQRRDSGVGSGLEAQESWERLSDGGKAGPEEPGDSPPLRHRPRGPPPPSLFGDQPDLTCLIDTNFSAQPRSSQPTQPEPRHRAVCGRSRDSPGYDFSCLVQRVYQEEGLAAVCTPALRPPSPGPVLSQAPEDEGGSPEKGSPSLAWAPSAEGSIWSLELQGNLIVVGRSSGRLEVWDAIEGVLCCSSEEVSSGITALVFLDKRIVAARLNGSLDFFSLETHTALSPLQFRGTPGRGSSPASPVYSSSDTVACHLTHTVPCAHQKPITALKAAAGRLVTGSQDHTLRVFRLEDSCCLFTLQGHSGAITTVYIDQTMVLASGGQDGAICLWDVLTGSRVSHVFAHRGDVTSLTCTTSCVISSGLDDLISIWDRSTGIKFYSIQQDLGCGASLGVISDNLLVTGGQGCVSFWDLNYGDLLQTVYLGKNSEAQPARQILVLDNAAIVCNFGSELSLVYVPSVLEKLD
Test: co-IP; HEK293T cells transfected with expression constructs (over-expressed); lysates in NP-40 buffer (150 mM NaCl, 5 mM EDTA, 1% NP-40, 50 mM Tris-HCl, pH 7.4), overnight at 4 °C with antibodies and protein A/G magnetic Dynabeads, three washes with lysis buffer, immunoblot

binding: binds
B1: SREBP Regulating Gene SPRING (C12ORF49) (protein, UniProt Q9H741 1-205)
chain: MVNLAAMVWRRLLRKRWVLALVFGLSLVYFLSSTFKQEERAVRDRNLLQVHDHNQPIPWKVQFNLGNSSRPSNQCRNSIQGKHLITDELGYVCERKDLLVNGCCNVNVPSTKQYCCDGCWPNGCCSAYEYCVSCCLQPNKQLLLERFLNRAAVAFQNLFMAVEDHFELCLAKCRTSSQSVQHENTYRDPIAKYCYGESPPELFPA
